# Source: PubChem BioAssay AID308 (DTP/NCI, 2004)
# The list does not hold the whole screen: it is rich in T/C values a quarter to a half above the control, in often repeated tests (any T/C) and in doses without a T/C. Further doses and runs are listed elsewhere. T/C is the treated group as % of the vehicle group. Some doses have a count of surviving animals in place of a T/C: the source files T/C as zero there, which appears to mark a toxic dose or a test without result, not a measured value. Some survivor counts are full or nearly so, which does not show that the dose was tolerated: the source hardly ever lists a survival T/C far under the control, and the zero likely stands for such cases as well. Survivors were counted at the toxicity check, usually on the fifth day, unless a day is given; later deaths do not show. Schedule codes are those of the source, read here as Q, the interval in days (D) or hours (H), X, the number of doses. Some schedule codes hold Z or #, which are not explained here. For survival time, this PubChem deposit counts one and a half times the control or more as active, and values a quarter to a half above the control carry no call in these data; other NCI protocols may use other cut-offs. Some doses were run more than once; the values are given in rising order.
# Tested on: BDF1 mice, L1210 6-MP/6-TG resistant leukemia ip, survival T/C
# Assay: NCI In Vivo Anticancer Drug Screen. Data for tumor model L1210 Leukemia resistant to 6-MP and 6-Thioguanine; NSC 755, NSC 752 (intraperitoneal) in B6D2F1 (BDF1) mice
# Settings: T/C endpoint: mean survival time, higher T/C = longer survival
# Protocol: The antitumor activity of compounds was measured in mice bearing transplantable tumors. Survival or tumor size were measured and the results are expressed as the measurement made in the treated group (T) divided by the measurement made in the vehicle treated control group (C). The tumor model used in this assay is L1210 Leukemia resistant to 6-MP and 6-Thioguanine; NSC 755, NSC 752 (intraperitoneal) in B6D2F1 (BDF1) mice
compound,measurement,setting,value
Clc1ncnc2c1ncn2C1CCCCO1 (centres undefined),survivor count,"dose: 250.0 mg/kg/injection, schedule: Q01DX Z (ip), vehicle: other",5 of 6
same,survivor count,"dose: 500.0 mg/kg/injection, schedule: Q01DX Z (ip), vehicle: other",0 of 6
NS(=O)(=O)c1ncnc2nc[nH]c12,T/C,"dose: 4.0 mg/kg/injection, schedule: Q01DX Z (ip), vehicle: carboxymethylcellulose (CMC)",129 % of control
same,T/C,"dose: 8.0 mg/kg/injection, schedule: Q01DX Z (ip), vehicle: carboxymethylcellulose (CMC)",136 % of control
same,T/C,"dose: 12.0 mg/kg/injection, schedule: Q01DX Z (ip), vehicle: saline",132 % of control
same,survivor count,"dose: 100.0 mg/kg/injection, schedule: Q01DX Z (ip), vehicle: saline",4 of 7
Nc1nc(=S)c2ncn(C3OC(COC(=O)c4ccc(Cl)cc4)C(OC(=O)c4ccc(Cl)cc4)C3OC(=O)c3ccc(Cl)cc3)c2[nH]1 (centres undefined),survivor count,"dose: 25.0 mg/kg/injection, schedule: Q01DX015 (ip), vehicle: carboxymethylcellulose (CMC)",6 of 6
same,survivor count,"dose: 50.0 mg/kg/injection, schedule: Q01DX015 (ip), vehicle: carboxymethylcellulose (CMC)",6 of 6
same,survivor count,"dose: 200.0 mg/kg/injection, schedule: Q01DX015 (ip), vehicle: carboxymethylcellulose (CMC)",6 of 6
CSc1ncnc2c1ncn2CO,survivor count,"dose: 200.0 mg/kg/injection, schedule: Q01DX009 (ip), vehicle: other",3 of 10
O=c1[nH]cnc2c1nnn2C1OC(CO)C(O)C1O (centres undefined),T/C,"dose: 76.0 mg/kg/injection, schedule: Q01DX009 (ip), vehicle: saline",138 and 146 % of control
same,T/C,"dose: 114.0 mg/kg/injection, schedule: Q01DX009 (ip), vehicle: saline",140 % of control
same,T/C,"dose: 171.0 mg/kg/injection, schedule: Q01DX009 (ip), vehicle: saline",139 % of control
CC(=O)OCC1OC(n2cnc3c(=S)nc(N)[nH]c32)C(OC(C)=O)C1OC(C)=O (centres undefined),survivor count,"dose: 50.0 mg/kg/injection, schedule: Q01DX Z (ip), vehicle: other",6 of 6
same,survivor count,"dose: 100.0 mg/kg/injection, schedule: Q01DX Z (ip), vehicle: other",6 of 6
OCC1OC(n2cnc3c(=S)nc[nH]c32)CC1O (centres undefined),survivor count,"dose: 500.0 mg/kg/injection, schedule: Q01DX015 (ip), vehicle: carboxymethylcellulose (CMC)",5 of 6
CSc1ncc(Br)c(Sc2nc(N)nc3nc[nH]c23)n1,survivor count,"dose: 25.0 mg/kg/injection, schedule: Q01DX Z (ip), vehicle: carboxymethylcellulose (CMC)",6 of 6
same,survivor count,"dose: 50.0 mg/kg/injection, schedule: Q01DX Z (ip), vehicle: carboxymethylcellulose (CMC)",6 of 6
same,survivor count,"dose: 100.0 mg/kg/injection, schedule: Q01DX Z (ip), vehicle: carboxymethylcellulose (CMC)",4 of 6
CC[C@]1(O)C[C@H]2CN(CCc3c([nH]c4ccccc34)[C@@](C(=O)OC)(c3cc4c(cc3OC)N(C=O)[C@H]3[C@@](O)(C(=O)OC)[C@H](OC(C)=O)[C@]5(CC)C=CCN6CC[C@]43[C@@H]65)C2)C1,survivor count,"dose: 0.45 mg/kg/injection, schedule: Q01DX015 (ip), vehicle: carboxymethylcellulose (CMC)",10 of 10
CN(C)C(=S)N=Nc1c(O)[nH]c2ccccc12,survivor count,"dose: 200.0 mg/kg/injection, schedule: Q01DX Z (ip), vehicle: carboxymethylcellulose (CMC)",5 of 6
CN(C)[C@@H]1C(=O)C(C(=O)NCc2nc3[nH]cnc(=S)c3[nH]2)=C(O)[C@@]2(O)C(=O)C3=C(O)c4c(O)cccc4[C@@](C)(O)[C@H]3C[C@@H]12,survivor count,"dose: 200.0 mg/kg/injection, schedule: Q01DX009 (ip), vehicle: carboxymethylcellulose (CMC)",6 of 6
CC(C)n1cnc2c(=S)nc[nH]c21,survivor count,"dose: 140.0 mg/kg/injection, schedule: Q01DX015 (ip), vehicle: carboxymethylcellulose (CMC)",6 of 6
same,survivor count,"dose: 210.0 mg/kg/injection, schedule: Q01DX015 (ip), vehicle: carboxymethylcellulose (CMC)",5 of 6
C=CC(CN1CC1)OC(C)=O (centres undefined),T/C,"dose: 1.5 mg/kg/injection, schedule: Q01DX Z (ip), vehicle: saline",125 % of control
same,T/C,"dose: 6.0 mg/kg/injection, schedule: Q01DX Z (ip), vehicle: saline",139 % of control
same,T/C,"dose: 10.0 mg/kg/injection, schedule: Q01DX Z (ip), vehicle: saline",131 % of control
same,survivor count,"dose: 20.0 mg/kg/injection, schedule: Q01DX Z (ip), vehicle: saline",6 of 6
same,survivor count,"dose: 30.0 mg/kg/injection, schedule: Q01DX Z (ip), vehicle: saline",5 of 6
